This is one part of the list.

Protein sequences, listed by entry. Tags and fused reporters are not part of them. Lines headed by an entry give the natural chain unless they say otherwise; changes in a name come on top.
UniProt Q5PRF9: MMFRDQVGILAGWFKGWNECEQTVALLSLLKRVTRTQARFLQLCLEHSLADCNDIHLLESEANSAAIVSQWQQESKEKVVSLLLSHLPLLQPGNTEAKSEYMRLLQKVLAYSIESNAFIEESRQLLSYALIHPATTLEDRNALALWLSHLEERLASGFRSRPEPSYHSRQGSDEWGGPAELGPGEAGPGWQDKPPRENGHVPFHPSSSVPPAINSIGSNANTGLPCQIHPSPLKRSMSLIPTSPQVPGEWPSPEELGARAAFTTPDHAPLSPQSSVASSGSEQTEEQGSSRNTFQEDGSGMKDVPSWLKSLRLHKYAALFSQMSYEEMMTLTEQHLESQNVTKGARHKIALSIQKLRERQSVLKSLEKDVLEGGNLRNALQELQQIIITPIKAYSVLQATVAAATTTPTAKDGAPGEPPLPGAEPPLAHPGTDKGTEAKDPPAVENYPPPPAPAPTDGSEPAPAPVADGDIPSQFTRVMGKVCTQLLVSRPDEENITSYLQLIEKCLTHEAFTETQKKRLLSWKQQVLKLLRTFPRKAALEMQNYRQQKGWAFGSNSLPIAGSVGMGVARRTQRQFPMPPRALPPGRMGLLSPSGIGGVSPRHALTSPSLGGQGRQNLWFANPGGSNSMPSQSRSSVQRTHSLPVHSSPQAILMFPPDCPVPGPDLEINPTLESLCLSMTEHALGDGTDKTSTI
UniProt O75056, whole entry, looked up: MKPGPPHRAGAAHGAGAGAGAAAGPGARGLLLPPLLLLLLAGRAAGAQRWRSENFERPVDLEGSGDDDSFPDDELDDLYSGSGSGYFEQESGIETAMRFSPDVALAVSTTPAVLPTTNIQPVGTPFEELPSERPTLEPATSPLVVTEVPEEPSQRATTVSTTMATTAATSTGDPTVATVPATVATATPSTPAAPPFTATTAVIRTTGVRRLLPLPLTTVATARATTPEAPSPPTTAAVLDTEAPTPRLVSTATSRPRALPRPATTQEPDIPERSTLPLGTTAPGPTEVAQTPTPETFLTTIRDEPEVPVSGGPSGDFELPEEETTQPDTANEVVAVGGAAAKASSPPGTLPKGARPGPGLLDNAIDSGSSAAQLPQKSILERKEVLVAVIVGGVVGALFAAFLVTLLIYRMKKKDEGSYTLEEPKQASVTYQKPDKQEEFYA
UniProt Q92503: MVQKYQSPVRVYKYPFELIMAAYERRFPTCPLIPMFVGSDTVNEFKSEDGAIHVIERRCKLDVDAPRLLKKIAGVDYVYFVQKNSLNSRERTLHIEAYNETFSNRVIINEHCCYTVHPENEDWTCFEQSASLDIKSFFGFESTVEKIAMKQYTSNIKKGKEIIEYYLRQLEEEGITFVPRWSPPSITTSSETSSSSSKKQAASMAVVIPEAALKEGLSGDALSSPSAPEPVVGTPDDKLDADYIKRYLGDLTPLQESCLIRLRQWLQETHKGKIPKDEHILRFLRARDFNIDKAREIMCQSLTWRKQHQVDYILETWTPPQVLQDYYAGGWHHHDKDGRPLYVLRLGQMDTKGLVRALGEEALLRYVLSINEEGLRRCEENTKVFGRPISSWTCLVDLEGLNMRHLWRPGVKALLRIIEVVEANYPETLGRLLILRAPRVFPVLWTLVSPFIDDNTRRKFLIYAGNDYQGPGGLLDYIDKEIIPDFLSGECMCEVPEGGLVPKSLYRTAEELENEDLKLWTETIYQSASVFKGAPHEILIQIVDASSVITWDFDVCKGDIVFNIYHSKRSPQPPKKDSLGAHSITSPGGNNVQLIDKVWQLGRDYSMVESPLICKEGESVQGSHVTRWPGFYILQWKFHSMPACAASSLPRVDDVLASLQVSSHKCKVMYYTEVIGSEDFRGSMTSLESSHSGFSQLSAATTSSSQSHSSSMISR
UniProt Q7L3V2: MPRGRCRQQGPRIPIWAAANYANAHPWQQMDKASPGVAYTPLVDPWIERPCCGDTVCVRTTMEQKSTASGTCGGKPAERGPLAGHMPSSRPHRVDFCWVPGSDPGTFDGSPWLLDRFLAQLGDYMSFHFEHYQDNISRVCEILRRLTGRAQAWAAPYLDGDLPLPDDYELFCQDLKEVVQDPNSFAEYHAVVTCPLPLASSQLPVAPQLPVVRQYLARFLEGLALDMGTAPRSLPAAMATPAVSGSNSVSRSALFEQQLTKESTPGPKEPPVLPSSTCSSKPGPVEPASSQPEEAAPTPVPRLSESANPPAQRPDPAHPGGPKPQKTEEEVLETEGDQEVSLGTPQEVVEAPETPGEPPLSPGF
UniProt O75446: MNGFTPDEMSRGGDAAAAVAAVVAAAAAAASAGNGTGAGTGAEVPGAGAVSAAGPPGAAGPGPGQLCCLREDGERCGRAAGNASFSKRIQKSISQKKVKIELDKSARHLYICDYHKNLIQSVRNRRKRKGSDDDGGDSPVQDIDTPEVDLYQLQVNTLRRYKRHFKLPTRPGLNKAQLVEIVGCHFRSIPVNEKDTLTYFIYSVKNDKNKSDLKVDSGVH
UniProt Q5VUM1: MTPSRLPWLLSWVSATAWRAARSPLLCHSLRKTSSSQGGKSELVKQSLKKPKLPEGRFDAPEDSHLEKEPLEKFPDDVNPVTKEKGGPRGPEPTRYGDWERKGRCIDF
UniProt Q96IW7: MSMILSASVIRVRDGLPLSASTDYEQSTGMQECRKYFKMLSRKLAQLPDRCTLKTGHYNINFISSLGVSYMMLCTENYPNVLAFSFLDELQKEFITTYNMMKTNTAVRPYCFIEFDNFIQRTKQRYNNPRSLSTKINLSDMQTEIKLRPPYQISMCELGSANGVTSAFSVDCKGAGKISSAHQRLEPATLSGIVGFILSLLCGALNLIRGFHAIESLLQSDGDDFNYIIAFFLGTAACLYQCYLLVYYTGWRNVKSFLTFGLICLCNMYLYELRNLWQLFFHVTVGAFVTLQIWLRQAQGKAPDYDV
UniProt Q14160: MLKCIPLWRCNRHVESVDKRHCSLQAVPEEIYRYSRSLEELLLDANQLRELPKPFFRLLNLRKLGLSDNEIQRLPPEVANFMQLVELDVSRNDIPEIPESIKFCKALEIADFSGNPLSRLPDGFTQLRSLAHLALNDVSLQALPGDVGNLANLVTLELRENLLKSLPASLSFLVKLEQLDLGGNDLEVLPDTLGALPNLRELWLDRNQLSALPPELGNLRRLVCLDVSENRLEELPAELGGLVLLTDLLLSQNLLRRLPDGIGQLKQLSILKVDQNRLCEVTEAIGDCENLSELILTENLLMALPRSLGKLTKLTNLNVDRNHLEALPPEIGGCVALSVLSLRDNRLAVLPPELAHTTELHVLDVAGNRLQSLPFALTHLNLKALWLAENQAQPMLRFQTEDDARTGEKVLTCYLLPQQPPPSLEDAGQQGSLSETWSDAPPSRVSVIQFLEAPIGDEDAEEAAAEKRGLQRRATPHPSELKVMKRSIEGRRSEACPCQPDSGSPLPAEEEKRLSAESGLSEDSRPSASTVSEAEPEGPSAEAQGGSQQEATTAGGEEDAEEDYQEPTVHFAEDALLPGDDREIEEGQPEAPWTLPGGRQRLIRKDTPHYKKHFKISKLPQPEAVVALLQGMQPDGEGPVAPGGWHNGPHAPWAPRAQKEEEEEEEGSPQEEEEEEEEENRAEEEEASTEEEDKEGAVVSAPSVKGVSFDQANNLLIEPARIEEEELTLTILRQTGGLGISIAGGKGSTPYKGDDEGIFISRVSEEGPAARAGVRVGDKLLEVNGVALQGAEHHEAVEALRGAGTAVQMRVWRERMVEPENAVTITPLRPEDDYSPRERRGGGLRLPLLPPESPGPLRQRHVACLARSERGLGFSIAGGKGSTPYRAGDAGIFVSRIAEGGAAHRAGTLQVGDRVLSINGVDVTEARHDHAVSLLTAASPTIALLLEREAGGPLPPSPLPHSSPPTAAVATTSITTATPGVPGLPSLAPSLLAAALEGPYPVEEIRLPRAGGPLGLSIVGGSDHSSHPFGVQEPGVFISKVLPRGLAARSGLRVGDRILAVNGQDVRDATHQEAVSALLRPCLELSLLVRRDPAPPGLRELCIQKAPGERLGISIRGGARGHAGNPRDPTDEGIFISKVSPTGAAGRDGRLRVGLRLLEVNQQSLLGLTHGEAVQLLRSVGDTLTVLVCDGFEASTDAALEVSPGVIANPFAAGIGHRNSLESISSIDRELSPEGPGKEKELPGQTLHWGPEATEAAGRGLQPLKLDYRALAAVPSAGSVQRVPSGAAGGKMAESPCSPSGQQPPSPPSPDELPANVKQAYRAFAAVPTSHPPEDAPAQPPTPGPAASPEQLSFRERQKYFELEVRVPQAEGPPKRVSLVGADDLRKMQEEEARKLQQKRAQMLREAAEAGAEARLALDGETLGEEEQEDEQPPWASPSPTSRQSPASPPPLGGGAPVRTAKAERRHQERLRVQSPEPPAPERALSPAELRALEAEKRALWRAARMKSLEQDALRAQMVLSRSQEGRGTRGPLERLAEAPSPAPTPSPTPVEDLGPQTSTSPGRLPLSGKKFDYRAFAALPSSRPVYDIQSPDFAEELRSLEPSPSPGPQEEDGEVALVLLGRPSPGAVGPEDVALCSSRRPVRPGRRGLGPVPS
UniProt P60903, whole entry, looked up: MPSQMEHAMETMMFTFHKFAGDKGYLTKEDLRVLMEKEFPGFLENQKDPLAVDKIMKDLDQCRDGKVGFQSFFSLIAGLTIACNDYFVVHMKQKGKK
UniProt Q9H0E3: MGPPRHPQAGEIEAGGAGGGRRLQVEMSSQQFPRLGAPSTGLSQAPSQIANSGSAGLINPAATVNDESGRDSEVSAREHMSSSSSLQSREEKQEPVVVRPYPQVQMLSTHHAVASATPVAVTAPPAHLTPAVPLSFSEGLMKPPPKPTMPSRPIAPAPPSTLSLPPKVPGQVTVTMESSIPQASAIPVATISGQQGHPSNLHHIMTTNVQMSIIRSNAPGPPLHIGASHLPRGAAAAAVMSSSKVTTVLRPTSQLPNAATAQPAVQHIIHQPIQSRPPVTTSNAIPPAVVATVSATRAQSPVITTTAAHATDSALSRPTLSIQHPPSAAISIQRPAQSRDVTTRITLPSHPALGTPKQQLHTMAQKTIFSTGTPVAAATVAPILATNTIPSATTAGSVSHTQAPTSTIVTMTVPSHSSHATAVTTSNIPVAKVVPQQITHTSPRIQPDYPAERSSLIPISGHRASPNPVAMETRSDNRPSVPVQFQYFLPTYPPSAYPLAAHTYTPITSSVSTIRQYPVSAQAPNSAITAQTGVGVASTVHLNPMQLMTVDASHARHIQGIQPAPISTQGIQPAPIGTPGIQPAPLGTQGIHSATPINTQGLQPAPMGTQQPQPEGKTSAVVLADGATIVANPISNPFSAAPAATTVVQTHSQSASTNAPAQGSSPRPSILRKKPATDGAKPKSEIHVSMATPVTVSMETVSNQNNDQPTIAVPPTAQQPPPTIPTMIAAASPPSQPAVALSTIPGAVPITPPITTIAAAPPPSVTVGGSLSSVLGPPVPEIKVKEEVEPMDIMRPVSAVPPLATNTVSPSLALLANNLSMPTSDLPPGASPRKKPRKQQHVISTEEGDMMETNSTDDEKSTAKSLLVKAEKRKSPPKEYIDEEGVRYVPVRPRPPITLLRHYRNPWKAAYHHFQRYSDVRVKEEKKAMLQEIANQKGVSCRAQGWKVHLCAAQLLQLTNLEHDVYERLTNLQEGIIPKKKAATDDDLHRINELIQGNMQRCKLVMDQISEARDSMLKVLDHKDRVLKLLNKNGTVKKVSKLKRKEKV
UniProt Q99643: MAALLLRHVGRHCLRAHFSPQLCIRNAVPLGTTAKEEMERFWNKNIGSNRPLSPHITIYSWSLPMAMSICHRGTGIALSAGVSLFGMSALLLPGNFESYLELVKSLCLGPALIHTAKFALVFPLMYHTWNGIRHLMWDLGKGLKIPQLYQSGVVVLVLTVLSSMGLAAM
UniProt Q15436: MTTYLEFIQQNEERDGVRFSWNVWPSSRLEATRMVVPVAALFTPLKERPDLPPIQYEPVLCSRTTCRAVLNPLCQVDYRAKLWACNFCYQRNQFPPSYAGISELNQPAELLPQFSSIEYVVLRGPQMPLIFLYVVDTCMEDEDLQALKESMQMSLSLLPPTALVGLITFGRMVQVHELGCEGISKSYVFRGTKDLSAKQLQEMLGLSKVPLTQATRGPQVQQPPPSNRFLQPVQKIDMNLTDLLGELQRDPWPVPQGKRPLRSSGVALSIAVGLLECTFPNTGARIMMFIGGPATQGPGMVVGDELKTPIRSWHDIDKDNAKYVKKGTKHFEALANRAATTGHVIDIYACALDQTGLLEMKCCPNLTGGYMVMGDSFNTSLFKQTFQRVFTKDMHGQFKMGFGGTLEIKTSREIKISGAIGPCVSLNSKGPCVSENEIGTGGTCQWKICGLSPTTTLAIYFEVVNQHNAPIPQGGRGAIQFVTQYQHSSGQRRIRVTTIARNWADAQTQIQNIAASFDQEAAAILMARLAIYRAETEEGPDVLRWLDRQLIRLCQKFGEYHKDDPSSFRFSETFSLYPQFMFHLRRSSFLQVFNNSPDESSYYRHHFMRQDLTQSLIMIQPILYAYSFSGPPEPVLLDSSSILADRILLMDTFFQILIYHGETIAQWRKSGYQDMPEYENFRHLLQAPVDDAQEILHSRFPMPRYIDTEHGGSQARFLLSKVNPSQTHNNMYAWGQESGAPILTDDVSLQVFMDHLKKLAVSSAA

Compound in the experiment: c1ccc([C@@H]2C[C@H]2NC2CCNCC2)cc1
Nature of the experiment: log2 fold change, soluble protein after heating vs DMSO (PISA); higher = thermal stabilisation; K562 cells, 10 uM, 30 min; active = over 0.2 and 3.5 SD of the protein, either way, in both replicates (recomputed). Put shortly: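 Aliquots of K562 cells (2×10^6 cells/mL) treated with 10 μM compound for 30 min were heated for 3 min over 48°C-58°C. After pooling and extraction in PBS with 0.5% NP-40 at 4°C, soluble protein from a 21,000xg, 90 min spin was quantified by TMTpro 16plex LC-MS/MS with channel sums equalised. Thermal stability is expressed against control samples, from duplicates, as a log2 fold change.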
For SAE1 (UniProt M0R286), the log2 fold change is inactive: 0.245.

SAMD4B (UniProt Q5PRF9): the log2 fold change is inactive: 0.058.

Take SAYSD1 (UniProt Q9NPB0): the log2 fold change was inactive: -0.095.

On to SDC3 (UniProt O75056), for which the log2 fold change was inactive: 0.052.

On to SEC14L1 isoform 2 (UniProt Q92503), for which the log2 fold change was inactive: 0.028.

SEC24A (UniProt O95486): the log2 fold change is inactive: -0.021.

Consider S100A6 (UniProt P06703), for which the log2 fold change was inactive: 0.

In the case of RTN4 isoform 5 (UniProt Q9NQC3), the log2 fold change was inactive: 0.117.

Regarding RTL10 (UniProt Q7L3V2), the log2 fold change is inactive: 0.031.

In the case of RUFY3 isoform 3 (UniProt Q7L099), the log2 fold change was inactive: 0.029.

Take SAP30 (UniProt O75446): the log2 fold change is inactive: -0.032.

Turning to SDHAF4 (UniProt Q5VUM1), the log2 fold change is inactive: 0.073.

In the case of SCAI isoform 2 (UniProt Q8N9R8), the log2 fold change is inactive: 0.098.

SDHB, A0A087WWT1: the log2 fold change is inactive: 0.108.

For the target SDAD1 (UniProt Q9NVU7), the log2 fold change was inactive: -0.015.

As for SEC22A (UniProt Q96IW7), the log2 fold change is inactive: 0.002.

For SCRIB isoform 3 (UniProt Q14160), the log2 fold change was inactive: -0.446.

For the target S100A10 (UniProt P60903), the log2 fold change is inactive: -0.01.

Take SDHB, A0A087WXX8: the log2 fold change is inactive: 0.093.

With SAP130 isoform 3 (UniProt Q9H0E3), the log2 fold change is inactive: -0.168.

Regarding SDHC (UniProt Q99643), the log2 fold change was inactive: 0.163.

Regarding SEC23A (UniProt Q15436), the log2 fold change was inactive: 0.075.

(Values after the supplement of paper PMC10849652.)
